# Experimental data taken from the supplement of paper PMC12067093, “Discovery and optimisation of a covalent ligand for TRIM25 and its application to targeted protein ubiquitination” (Chemical Science, 2025).
# Chains of the proteins cited; added tags and fusions are not shown. Lines headed by an entry give the natural chain unless they say otherwise; changes in a name come on top.
# UniProt Q92621: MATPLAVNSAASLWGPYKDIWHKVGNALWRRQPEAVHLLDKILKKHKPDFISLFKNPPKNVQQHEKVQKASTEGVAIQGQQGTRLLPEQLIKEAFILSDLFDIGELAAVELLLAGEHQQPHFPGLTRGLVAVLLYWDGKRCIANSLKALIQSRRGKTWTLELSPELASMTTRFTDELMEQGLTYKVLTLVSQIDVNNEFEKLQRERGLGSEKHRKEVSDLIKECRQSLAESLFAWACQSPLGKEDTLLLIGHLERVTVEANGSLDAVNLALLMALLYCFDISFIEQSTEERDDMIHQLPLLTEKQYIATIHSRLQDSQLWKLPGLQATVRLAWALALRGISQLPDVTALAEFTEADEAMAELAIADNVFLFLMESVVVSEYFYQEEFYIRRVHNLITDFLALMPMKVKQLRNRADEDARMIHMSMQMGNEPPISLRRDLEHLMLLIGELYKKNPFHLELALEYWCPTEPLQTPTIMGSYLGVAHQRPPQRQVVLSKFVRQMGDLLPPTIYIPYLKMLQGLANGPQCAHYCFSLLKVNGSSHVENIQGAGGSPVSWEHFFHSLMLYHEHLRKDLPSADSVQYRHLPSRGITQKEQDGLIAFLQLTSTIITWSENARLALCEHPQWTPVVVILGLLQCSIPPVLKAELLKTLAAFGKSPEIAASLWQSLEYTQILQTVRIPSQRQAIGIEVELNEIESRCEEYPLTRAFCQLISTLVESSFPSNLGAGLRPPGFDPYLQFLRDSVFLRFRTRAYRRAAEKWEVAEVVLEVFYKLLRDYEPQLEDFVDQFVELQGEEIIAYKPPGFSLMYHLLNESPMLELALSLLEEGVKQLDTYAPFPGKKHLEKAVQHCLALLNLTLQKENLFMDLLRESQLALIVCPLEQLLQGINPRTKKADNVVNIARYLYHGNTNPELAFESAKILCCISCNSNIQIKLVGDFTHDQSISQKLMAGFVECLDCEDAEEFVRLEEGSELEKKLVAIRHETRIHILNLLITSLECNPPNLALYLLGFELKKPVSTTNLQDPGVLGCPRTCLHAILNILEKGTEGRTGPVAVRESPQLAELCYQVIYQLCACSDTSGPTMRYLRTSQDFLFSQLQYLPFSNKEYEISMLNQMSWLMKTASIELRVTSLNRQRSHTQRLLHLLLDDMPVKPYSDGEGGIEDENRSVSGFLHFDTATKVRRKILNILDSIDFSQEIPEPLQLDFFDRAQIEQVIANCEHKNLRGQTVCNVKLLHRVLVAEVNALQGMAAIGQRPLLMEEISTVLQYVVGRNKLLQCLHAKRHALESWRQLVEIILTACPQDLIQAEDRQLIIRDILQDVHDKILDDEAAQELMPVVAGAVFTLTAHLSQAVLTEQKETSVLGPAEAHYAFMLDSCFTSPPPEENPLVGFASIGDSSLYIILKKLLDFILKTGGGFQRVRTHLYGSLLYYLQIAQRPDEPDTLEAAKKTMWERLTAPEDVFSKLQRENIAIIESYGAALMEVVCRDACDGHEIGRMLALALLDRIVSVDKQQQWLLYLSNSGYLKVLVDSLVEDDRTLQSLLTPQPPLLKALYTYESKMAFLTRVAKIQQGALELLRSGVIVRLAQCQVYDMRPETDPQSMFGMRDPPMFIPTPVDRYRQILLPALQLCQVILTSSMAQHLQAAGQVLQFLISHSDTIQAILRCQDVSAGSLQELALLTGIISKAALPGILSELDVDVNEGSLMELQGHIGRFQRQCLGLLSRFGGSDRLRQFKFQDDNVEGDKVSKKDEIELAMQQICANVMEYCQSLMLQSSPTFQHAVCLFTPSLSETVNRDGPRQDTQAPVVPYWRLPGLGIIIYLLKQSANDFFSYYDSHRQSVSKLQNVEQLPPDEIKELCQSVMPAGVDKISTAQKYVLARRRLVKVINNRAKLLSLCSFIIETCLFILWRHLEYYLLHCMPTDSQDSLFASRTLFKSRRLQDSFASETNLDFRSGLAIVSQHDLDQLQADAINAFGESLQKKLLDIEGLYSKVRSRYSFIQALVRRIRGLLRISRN
# UniProt O75694: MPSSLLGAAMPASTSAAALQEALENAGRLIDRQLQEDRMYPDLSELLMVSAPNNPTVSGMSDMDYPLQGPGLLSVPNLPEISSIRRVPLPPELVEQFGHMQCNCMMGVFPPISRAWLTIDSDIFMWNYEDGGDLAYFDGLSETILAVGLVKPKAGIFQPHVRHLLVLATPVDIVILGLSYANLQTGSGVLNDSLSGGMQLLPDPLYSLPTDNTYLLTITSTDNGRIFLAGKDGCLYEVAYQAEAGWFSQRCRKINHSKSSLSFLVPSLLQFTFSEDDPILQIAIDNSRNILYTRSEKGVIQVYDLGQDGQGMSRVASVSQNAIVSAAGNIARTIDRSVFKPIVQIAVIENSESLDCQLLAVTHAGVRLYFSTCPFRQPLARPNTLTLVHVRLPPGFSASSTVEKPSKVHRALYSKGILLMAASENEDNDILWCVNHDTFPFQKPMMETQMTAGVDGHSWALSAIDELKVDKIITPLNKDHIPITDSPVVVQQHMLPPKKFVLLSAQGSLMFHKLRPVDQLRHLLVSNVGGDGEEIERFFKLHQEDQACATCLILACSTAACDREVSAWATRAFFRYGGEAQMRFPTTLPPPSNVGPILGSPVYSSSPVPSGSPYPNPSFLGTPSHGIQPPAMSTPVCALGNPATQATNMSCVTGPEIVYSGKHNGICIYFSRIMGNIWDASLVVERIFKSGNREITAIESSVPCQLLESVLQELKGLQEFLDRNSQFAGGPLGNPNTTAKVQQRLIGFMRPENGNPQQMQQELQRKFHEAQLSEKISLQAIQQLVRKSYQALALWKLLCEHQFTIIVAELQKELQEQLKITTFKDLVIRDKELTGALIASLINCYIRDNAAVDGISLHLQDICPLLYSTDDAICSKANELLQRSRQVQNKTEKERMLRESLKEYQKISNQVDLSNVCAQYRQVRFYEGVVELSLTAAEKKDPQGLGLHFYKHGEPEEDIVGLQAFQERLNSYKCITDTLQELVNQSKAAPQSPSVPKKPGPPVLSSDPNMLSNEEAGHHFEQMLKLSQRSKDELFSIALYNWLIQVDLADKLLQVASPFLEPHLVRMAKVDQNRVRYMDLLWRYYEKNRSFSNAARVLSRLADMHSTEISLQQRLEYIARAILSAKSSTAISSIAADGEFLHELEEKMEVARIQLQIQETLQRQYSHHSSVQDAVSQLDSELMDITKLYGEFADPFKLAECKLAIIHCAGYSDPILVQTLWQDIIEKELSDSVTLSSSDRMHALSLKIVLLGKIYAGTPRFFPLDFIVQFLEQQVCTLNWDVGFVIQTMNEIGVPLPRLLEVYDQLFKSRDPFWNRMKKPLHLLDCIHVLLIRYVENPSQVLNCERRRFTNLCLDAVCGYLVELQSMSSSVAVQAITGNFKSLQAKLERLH
# UniProt Q01968: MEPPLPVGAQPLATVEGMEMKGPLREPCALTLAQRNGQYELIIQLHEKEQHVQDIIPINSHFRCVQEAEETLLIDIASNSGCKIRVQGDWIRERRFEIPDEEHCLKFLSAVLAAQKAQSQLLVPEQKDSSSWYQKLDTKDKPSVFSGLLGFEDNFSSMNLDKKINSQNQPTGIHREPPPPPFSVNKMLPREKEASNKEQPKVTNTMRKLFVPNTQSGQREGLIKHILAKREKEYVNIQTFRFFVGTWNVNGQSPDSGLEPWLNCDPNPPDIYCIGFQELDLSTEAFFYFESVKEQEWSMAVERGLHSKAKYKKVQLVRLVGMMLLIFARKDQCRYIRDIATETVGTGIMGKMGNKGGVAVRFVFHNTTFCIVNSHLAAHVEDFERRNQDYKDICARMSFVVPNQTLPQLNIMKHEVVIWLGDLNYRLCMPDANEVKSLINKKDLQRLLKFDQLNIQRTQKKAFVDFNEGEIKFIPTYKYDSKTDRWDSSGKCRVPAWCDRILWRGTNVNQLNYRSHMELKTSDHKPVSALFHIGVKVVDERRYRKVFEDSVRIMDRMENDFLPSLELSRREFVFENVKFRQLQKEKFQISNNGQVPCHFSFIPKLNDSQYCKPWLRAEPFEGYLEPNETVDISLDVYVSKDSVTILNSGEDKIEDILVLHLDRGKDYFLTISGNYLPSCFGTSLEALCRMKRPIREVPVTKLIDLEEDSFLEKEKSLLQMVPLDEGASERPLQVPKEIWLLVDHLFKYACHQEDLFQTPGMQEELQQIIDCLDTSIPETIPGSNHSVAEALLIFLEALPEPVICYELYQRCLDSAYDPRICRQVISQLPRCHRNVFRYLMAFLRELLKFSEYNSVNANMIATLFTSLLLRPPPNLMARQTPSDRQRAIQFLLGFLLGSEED
# UniProt Q9Y6K5: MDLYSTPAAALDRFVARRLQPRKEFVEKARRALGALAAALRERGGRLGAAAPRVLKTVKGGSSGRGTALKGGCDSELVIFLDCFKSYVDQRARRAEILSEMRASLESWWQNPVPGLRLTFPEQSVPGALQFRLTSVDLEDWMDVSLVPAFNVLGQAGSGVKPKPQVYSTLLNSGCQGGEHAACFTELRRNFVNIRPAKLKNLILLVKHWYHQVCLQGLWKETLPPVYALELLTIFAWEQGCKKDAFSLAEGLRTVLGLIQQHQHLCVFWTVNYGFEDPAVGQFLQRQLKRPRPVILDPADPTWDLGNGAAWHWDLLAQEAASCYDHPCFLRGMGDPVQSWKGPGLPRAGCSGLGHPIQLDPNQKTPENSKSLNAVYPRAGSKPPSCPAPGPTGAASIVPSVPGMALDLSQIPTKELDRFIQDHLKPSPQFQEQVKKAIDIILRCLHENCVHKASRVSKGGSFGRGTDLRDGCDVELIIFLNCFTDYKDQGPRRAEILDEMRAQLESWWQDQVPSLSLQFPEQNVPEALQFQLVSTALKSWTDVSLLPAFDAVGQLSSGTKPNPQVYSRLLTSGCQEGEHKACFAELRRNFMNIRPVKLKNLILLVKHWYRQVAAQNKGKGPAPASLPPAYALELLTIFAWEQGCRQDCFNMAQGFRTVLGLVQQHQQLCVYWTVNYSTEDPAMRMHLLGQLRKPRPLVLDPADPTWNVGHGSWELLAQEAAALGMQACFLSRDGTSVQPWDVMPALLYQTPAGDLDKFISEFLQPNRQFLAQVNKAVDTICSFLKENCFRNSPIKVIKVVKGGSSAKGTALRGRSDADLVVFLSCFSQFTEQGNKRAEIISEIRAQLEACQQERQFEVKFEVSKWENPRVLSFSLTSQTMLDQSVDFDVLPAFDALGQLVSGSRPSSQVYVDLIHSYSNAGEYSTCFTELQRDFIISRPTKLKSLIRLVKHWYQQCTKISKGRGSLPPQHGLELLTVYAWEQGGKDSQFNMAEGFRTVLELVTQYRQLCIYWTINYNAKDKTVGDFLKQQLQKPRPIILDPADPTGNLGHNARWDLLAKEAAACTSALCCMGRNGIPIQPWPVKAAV
# UniProt Q02218: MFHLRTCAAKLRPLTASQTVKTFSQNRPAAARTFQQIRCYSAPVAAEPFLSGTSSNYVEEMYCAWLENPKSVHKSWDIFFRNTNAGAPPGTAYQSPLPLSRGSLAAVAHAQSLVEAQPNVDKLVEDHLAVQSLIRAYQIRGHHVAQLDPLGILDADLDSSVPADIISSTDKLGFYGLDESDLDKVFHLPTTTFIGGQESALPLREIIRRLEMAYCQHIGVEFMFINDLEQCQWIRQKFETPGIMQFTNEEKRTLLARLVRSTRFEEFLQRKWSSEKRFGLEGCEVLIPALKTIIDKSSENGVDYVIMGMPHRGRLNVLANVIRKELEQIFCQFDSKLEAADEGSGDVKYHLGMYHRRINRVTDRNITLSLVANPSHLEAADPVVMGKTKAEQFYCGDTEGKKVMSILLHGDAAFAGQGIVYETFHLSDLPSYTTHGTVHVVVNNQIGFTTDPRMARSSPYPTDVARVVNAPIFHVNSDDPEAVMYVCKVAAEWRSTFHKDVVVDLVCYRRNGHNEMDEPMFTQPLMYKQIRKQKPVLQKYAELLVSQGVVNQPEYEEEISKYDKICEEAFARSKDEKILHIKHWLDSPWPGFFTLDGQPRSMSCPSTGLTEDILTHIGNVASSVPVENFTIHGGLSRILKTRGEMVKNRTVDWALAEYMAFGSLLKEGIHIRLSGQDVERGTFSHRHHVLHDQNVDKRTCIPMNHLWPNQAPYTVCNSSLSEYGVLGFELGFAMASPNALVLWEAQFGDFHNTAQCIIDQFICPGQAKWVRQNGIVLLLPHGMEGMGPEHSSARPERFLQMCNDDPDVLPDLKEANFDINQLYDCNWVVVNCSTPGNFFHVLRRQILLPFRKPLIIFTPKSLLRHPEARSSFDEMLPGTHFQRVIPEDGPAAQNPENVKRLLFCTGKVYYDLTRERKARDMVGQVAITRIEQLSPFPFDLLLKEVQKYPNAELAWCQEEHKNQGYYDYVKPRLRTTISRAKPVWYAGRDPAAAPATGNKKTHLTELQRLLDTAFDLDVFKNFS
# The other results are listed elsewhere or left out.
# Compound: CC1Cc2ccccc2N1C(=O)C1CCCN(C1)C(=O)CCl (mixture of isomers) [TRIM25 ligand 11 (diastereomer mixture)]
# Assay: probe-labelled cysteine peptide fold change vs DMSO (competition) (log2 fold change); higher = less target engagement (more negative = stronger competition)
# Conditions: THP-1, incubation time: 4 h
# 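Note: competitive chemoproteomic profiling in live THP-1 cells with an iodoacetamide desthiobiotin (IA-DTB) probe, comparing probe-labelled peptide intensities in compound-treated cells against DMSO-treated controls.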
Target,probe-labelled cysteine peptide fold change (10 µM),probe-labelled cysteine peptide fold change (50 µM)
NUP205_Q92621_1032_TCLHAILNILEK (UniProt Q92621),0.00038,-0.0819
NUP155_O75694_1344_YVENPSQVLNCER (UniProt O75694),0.0277,0.0513
NXF1_Q9UBU9_328_LEELWLDGNSLCDTFR (UniProt Q9UBU9),0.301,0.17
NUP205_Q92621_1486_DACDGHEIGR (UniProt Q92621),0.206,0.294
NUP50_Q9UKX7_151_ACVGNAYHK (UniProt Q9UKX7),-0.156,-0.242
NUDT12_Q9BQG2_18_QEIVTQFHCSAAEGDIAK (UniProt Q9BQG2),0.00547,-0.3
ODR4_Q5SWX8_77_AKLDNLDEEWATEHACQVSR (UniProt Q5SWX8),0.0231,-0.097
OBSL1_O75147_412_LKADDDGIYLCEMR (UniProt O75147),-0.0685,0.0746
NXF3_Q9H4D5_214_LAMNQQCDVSQEALDIQR (UniProt Q9H4D5),0.175,0.248
OCRL_Q01968_104_FEIPDEEHCLK (UniProt Q01968),-0.00148,0.0505
OAS3_Q9Y6K5_850_AQLEACQQER (UniProt Q9Y6K5),0.268,0.174
NUP93_Q8N1F7_209_IVNGHLQPNLVDLCASVAELDDK (UniProt Q8N1F7),0.069,0.227
NT5DC1_Q5TFE4_119_HFLSDTGMACR (UniProt Q5TFE4),-0.0403,-0.414
NUDT8_Q8WV74_71_CDPADQDVVHTALR (UniProt Q8WV74),0.0494,0.139
NUP160_Q12769_931_ALECFCQAASEVGKEEFLDR (UniProt Q12769),0.13,0.0495
OCRL_Q01968_611_LNDSQYCKPWLR (UniProt Q01968),-0.48,-0.46
NUP107_P57740_78_QPDISCILGTGGK (UniProt P57740),-0.049,-0.2
ODR4_Q5SWX8_77_LDNLDEEWATEHACQVSR (UniProt Q5SWX8),0.21,-0.0829
NUMA1_Q14980_2009_ATSCFPR (UniProt Q14980),-0.114,-0.0276
OAT_P04181_93_YFDFLSSYSAVNQGHCHPK (UniProt P04181),0.0741,0.0781

Target,probe-labelled cysteine peptide fold change (10 µM),probe-labelled cysteine peptide fold change (50 µM)
OAS3_Q9Y6K5_73_GGCDSELVIFLDCFK (UniProt Q9Y6K5),-0.0584,-0.0297
NUP98_P52948_1636_HLEALCLFK (UniProt P52948),0.103,-0.0312
OCRL_Q01968_370_FVFHNTTFCIVNSHLAAHVEDFER (UniProt Q01968),0.316,0.293
NUP205_Q92621_530_MLQGLANGPQCAHYCFSLLK (UniProt Q92621),0.0757,0.0958
NTMT1_Q9BV86_68_TGTSCALDCGAGIGR (UniProt Q9BV86),0.0307,0.126
NUP155_O75694_548+551_LHQEDQACATCLILACSTAACDR (UniProt O75694),0.0303,0.0895
NUP155_O75694_974_CITDTLQELVNQSK (UniProt O75694),-0.00767,-0.149
OGDH_Q02218_802_FLQMCNDDPDVLPDLK (UniProt Q02218),0.202,-0.0151
NUDT6_P53370_44_NPPVGACDLQGELDR (UniProt P53370),0.195,-0.149
NUMB_P49757_58_GMHICEDAVK (UniProt P49757),0.0145,-0.0288
NT5DC1_Q5TFE4_139_YYFYDNYFDLPGALLCAR (UniProt Q5TFE4),0.416,0.718
OGFOD3_Q6PK18_90_FIEVPCSEDYDSHRR (UniProt Q6PK18),-0.0152,-0.242
NUP160_Q12769_1131_QGNCYLAALNCLR (UniProt Q12769),0.221,0.0848
NUDCD1_Q96RS6_32_LSLEPLPCYQLELDAAVAEVK (UniProt Q96RS6),0.38,0.116
NUP210_Q8TEM1_962_GVAMVHPLLPGSSTIMIHDLCLVFPAPAK (UniProt Q8TEM1),0.0835,0.0989
OGDH_Q02218_395_AEQFYCGDTEGK (UniProt Q02218),0.13,0.282
OFD1_O75665_157_ESCNMETQTSSTFNR (UniProt O75665),-0.017,-0.197
NUP85_Q9BW27_112_ACMEEMHQVAIAAK (UniProt Q9BW27),-0.0575,-0.0569
NUBP2_Q9Y5Y2_177_RELTFCR (UniProt Q9Y5Y2),-0.139,0.0028
